# The list shows a part of the results.
# By UniProt entry, the sequences of proteins in these tests, tags left out. Where a name states a change or a piece, a line headed by the entry shows the natural chain unless it says otherwise.
# UniProt O75689: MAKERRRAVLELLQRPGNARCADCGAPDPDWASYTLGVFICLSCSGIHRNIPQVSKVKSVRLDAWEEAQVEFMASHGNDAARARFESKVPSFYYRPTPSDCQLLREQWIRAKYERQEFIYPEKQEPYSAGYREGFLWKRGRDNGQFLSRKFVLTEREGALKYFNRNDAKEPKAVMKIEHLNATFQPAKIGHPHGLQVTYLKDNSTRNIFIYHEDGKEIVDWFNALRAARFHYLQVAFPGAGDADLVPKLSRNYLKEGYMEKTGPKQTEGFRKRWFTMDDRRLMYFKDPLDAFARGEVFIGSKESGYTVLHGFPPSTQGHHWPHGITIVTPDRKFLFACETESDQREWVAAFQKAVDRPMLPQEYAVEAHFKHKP
# UniProt Q9NUQ2: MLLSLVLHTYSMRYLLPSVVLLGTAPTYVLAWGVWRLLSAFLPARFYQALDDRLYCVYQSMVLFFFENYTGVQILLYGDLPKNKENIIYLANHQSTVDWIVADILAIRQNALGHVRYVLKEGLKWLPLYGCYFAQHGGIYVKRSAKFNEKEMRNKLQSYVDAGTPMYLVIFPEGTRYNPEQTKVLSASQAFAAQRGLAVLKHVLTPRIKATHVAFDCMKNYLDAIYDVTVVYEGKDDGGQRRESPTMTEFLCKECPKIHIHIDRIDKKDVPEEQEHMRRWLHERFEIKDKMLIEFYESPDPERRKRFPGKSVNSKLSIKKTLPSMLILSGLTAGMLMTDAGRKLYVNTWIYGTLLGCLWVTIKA
# UniProt Q99856: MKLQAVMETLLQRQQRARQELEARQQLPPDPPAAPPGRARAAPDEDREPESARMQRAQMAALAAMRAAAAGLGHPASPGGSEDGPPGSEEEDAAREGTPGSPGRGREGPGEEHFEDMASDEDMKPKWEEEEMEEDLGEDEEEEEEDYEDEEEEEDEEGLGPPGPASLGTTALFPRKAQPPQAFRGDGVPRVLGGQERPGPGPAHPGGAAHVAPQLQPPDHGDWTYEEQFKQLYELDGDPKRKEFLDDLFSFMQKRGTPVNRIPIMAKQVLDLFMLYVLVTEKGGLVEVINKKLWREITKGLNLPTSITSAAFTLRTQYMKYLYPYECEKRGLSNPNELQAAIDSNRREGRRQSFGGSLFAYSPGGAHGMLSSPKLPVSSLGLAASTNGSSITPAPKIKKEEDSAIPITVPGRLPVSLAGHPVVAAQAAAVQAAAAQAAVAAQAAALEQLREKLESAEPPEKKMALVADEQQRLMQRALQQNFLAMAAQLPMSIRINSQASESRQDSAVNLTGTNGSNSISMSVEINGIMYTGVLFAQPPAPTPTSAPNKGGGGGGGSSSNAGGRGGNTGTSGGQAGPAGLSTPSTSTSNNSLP
# UniProt Q9BXS5: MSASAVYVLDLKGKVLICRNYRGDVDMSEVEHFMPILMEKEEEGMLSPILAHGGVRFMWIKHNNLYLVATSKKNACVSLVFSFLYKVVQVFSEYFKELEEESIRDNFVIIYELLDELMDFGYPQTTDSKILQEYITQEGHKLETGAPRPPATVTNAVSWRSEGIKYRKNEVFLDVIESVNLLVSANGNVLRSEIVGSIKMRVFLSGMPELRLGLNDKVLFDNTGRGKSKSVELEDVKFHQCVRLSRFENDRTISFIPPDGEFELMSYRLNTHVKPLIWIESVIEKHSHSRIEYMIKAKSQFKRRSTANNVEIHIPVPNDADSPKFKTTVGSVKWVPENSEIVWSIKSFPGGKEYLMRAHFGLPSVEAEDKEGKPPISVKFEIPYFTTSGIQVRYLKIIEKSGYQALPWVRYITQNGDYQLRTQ
# UniProt Q9H3P7: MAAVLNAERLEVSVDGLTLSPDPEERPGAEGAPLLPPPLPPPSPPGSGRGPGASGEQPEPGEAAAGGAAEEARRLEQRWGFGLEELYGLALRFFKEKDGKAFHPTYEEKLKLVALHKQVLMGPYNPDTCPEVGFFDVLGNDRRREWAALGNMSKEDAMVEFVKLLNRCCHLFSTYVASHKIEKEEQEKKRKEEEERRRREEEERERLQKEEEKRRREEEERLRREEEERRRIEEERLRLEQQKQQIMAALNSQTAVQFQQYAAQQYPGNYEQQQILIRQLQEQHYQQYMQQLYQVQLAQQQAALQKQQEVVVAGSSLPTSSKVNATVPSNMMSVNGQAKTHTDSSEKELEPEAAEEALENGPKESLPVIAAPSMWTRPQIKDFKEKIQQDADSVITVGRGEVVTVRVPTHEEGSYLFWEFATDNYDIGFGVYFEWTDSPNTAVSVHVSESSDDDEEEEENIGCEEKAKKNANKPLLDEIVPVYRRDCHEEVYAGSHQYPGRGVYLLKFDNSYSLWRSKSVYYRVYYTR
# UniProt Q8N392: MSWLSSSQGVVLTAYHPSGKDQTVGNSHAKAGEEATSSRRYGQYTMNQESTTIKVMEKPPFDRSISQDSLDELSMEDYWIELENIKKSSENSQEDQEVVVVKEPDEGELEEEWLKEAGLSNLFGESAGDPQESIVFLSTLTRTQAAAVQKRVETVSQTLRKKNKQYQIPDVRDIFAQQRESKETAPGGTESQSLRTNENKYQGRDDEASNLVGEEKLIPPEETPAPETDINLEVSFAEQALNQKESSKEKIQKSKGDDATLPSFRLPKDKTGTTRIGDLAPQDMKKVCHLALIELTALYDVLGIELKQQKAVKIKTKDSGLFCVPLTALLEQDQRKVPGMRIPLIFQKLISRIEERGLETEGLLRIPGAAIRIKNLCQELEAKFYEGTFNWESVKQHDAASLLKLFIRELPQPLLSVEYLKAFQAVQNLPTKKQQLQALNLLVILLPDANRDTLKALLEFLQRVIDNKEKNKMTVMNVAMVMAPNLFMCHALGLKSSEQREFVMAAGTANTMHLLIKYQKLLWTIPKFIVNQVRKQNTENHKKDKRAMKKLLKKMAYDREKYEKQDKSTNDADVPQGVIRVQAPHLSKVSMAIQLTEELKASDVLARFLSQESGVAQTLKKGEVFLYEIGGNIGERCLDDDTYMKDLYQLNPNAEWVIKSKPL
# UniProt Q96BJ3: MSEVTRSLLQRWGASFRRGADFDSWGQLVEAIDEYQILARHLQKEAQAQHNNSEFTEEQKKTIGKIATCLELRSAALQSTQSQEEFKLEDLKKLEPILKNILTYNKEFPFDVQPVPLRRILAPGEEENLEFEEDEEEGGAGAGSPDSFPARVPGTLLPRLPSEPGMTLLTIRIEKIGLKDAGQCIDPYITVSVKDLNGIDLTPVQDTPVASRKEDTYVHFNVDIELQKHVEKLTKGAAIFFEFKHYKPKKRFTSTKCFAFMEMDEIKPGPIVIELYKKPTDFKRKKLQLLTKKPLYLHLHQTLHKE
# UniProt Q8IV38: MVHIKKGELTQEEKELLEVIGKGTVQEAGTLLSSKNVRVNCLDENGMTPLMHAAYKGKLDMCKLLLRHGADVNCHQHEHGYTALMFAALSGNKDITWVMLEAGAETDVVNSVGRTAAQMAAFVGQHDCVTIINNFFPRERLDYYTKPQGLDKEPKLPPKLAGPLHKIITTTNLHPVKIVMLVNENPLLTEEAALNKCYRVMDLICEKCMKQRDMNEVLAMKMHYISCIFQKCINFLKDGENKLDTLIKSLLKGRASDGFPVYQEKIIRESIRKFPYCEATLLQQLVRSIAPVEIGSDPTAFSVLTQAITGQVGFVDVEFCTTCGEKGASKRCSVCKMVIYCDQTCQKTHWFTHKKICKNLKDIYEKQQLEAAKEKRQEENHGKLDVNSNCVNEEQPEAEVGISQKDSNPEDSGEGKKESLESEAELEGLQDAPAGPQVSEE
# UniProt O43488: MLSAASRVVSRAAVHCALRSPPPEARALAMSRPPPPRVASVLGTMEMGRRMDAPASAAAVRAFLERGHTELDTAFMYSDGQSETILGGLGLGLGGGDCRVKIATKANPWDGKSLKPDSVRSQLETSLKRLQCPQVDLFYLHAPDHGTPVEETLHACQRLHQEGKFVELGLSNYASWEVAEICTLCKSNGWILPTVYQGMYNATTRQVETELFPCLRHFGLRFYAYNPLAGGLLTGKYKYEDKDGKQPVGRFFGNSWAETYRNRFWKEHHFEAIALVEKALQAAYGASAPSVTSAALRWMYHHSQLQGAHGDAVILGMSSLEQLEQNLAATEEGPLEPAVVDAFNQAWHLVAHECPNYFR
# UniProt Q96EY9: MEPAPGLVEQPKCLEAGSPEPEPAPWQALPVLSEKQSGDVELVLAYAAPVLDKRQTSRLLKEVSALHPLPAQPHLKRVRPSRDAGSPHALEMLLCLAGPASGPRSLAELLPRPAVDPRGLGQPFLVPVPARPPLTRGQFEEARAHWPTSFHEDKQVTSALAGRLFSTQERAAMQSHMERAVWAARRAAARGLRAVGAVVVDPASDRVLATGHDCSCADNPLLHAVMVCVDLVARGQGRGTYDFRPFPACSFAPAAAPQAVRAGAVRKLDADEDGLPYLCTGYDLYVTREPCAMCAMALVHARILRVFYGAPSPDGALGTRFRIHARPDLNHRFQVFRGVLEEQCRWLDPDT
# UniProt Q02252: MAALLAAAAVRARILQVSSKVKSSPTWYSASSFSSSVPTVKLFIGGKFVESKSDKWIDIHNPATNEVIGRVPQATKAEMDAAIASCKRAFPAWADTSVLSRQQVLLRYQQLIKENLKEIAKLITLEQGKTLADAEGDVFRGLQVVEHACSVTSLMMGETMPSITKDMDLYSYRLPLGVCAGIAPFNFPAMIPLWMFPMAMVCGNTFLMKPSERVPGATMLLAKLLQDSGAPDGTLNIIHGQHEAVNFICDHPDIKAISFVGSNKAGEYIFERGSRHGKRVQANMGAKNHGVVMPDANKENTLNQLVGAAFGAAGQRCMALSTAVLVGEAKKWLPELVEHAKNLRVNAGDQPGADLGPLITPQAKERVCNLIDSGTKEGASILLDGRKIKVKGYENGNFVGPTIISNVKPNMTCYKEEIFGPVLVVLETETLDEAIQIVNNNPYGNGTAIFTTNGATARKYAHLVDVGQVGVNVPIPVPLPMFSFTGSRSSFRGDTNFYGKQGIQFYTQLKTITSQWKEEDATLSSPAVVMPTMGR
# UniProt Q96PC3: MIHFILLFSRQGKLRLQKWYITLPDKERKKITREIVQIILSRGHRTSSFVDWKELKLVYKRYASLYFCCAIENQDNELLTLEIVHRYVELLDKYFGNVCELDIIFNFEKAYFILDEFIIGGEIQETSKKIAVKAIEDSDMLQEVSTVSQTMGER
# UniProt Q07960: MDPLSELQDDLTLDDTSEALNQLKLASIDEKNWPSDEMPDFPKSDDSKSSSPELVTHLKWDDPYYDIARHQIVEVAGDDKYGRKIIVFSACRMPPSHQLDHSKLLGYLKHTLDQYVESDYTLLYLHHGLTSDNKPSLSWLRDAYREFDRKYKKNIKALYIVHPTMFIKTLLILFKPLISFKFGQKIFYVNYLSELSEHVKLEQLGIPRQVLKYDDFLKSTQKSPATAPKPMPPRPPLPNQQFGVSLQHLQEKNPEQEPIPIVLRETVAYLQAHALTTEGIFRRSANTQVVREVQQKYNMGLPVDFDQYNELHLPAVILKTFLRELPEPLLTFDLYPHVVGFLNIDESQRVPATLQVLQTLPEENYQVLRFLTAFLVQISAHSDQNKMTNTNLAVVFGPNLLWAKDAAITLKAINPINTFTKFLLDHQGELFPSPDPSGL
# UniProt P39687: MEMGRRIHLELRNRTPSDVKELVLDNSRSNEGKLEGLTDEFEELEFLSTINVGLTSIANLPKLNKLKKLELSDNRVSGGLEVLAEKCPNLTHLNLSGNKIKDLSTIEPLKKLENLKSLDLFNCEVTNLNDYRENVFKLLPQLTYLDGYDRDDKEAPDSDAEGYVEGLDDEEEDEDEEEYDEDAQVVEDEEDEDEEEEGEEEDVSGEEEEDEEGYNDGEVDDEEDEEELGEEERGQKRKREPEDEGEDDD
# UniProt P13798: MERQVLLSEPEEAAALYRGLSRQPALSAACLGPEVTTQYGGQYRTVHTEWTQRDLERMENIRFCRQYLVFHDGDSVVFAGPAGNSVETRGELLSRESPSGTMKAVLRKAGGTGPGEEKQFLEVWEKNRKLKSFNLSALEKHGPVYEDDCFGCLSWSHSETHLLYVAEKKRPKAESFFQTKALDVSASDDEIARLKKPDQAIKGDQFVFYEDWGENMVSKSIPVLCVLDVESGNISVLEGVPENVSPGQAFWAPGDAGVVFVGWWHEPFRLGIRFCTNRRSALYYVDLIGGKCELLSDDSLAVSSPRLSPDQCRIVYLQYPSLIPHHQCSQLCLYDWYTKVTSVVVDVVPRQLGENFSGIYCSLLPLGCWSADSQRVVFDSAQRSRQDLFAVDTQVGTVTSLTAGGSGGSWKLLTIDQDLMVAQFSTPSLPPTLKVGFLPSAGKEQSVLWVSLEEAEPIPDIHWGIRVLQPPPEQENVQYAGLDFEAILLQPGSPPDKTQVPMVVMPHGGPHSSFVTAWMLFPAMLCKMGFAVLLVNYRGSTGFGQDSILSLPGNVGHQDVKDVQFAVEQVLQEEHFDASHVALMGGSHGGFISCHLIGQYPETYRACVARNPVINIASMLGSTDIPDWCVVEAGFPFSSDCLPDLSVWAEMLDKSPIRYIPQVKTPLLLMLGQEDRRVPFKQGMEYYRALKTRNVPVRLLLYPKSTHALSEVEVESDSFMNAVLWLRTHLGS
# Compound: COc1ccc(Cn2ccc3ccc(C(=O)NO)cc32)cc1
# Assay: dose-dependent thermal stabilisation call (2D-TPP, DLPTP, 10% FDR) (binary (1 = stabilised)); higher = stabilised by the compound
# Details: system: HL-60 intact cells; concentration range 0.04-10 µM
row,Target,dose-dependent thermal stabilisation call
1,ARL13B (UniProt Q3SXY8),inactive: 0
2,ANKRD44 (UniProt Q8N8A2),inactive: 0
3,APH1A (UniProt Q96BI3),inactive: 0
4,AGFG1 (UniProt P52594),inactive: 0
5,ACTL8 (UniProt Q9H568),inactive: 0
6,ARIH1 (UniProt Q9Y4X5),inactive: 0
7,ARHGEF7 (UniProt Q14155),inactive: 0
8,AGPAT3 (UniProt Q9NRZ7),inactive: 0
9,ANXA2 (UniProt P07355),inactive: 0
10,ALG2 (UniProt Q9H553),inactive: 0
11,ANKRD54 (UniProt Q6NXT1),inactive: 0
12,ACOT7 (UniProt O00154),inactive: 0
13,ARHGEF11 (UniProt O15085),inactive: 0
14,ARHGAP26 (UniProt Q9UNA1),inactive: 0
15,ANKZF1 (UniProt Q9H8Y5),inactive: 0
16,AP2A1 (UniProt O95782),inactive: 0
17,ACTL6A (UniProt O96019),inactive: 0
18,APOBEC3C (UniProt Q9NRW3),inactive: 0
19,ANXA11 (UniProt P50995),inactive: 0
20,ARFGAP2 (UniProt Q8N6H7),inactive: 0
21,ADAP1 (UniProt O75689),inactive: 0
22,ACYP2 (UniProt P14621),inactive: 0
23,ARHGEF6 (UniProt Q15052),inactive: 0
24,ALKBH5 (UniProt Q6P6C2),inactive: 0

# Taken from the results shown (4 entries):
row,Target,dose-dependent thermal stabilisation call
12,ACOT7 (UniProt O00154),inactive: 0
13,ARHGEF11 (UniProt O15085),inactive: 0
14,ARHGAP26 (UniProt Q9UNA1),inactive: 0
15,ANKZF1 (UniProt Q9H8Y5),inactive: 0

# More entries.

row,Target,dose-dependent thermal stabilisation call
1,AGPAT5 (UniProt Q9NUQ2),inactive: 0
2,ACYP1 (UniProt P07311),inactive: 0
3,ADD1 (UniProt P35611),inactive: 0
4,ACBD5 (UniProt Q5T8D3),inactive: 0
5,ANO6 (UniProt Q4KMQ2),inactive: 0
6,ARHGAP27 (UniProt Q6ZUM4),inactive: 0
7,ARID3A (UniProt Q99856),inactive: 0
8,ARHGEF18 (UniProt Q6ZSZ5),inactive: 0
9,ARIH2 (UniProt O95376),inactive: 0
10,AHCY (UniProt P23526),inactive: 0
11,ARL1 (UniProt P40616),inactive: 0
12,ADAM15 (UniProt Q13444),inactive: 0
13,AFTPH (UniProt Q6ULP2),inactive: 0
14,AGAP2 (UniProt Q99490),inactive: 0
15,ACSL1 (UniProt P33121),inactive: 0
16,AP1M1 (UniProt Q9BXS5),inactive: 0
17,ACSL3 (UniProt O95573),inactive: 0
18,ADRM1 (UniProt Q16186),inactive: 0
19,ANTXR1 (UniProt Q9H6X2),inactive: 0
20,AP3M1 (UniProt Q9Y2T2),inactive: 0
21,AGA (UniProt P20933),inactive: 0
22,AP1B1 (UniProt Q10567),inactive: 0
23,ALDH5A1 (UniProt P51649),active: 1
24,ACBD3 (UniProt Q9H3P7),inactive: 0

row,Target,dose-dependent thermal stabilisation call
1,AIF1 (UniProt P55008),inactive: 0
2,ADSS (UniProt P30520),active: 1
3,ARHGAP30 (UniProt Q7Z6I6),inactive: 0
4,ANAPC1 (UniProt Q9H1A4),inactive: 0
5,ARHGAP18 (UniProt Q8N392),inactive: 0
6,ALG3 (UniProt Q92685),inactive: 0
7,ADO (UniProt Q96SZ5),inactive: 0
8,ACTR1B (UniProt P42025),inactive: 0
9,APLP2 (UniProt Q06481),inactive: 0
10,AIDA (UniProt Q96BJ3),inactive: 0
11,ARCN1 (UniProt P48444),inactive: 0
12,AKAP13 (UniProt Q12802),inactive: 0
13,AIG1 (UniProt Q9NVV5),inactive: 0
14,ANKMY2 (UniProt Q8IV38),inactive: 0
15,ARD1A (UniProt P41227),inactive: 0
16,AKR7A2 (UniProt O43488),inactive: 0
17,ADSL (UniProt P30566),active: 1
18,ARFIP1 (UniProt P53367),inactive: 0
19,API5 (UniProt Q9BZZ5),inactive: 0
20,AIM1,inactive: 0
21,ARHGDIA (UniProt P52565),inactive: 0
22,ADAT3 (UniProt Q96EY9),inactive: 0
23,AP2S1 (UniProt P53680),inactive: 0
24,AKAP2,inactive: 0

row,Target,dose-dependent thermal stabilisation call
1,APIP (UniProt Q96GX9),inactive: 0
2,ALDH6A1 (UniProt Q02252),inactive: 0
3,AP2M1 (UniProt Q96CW1),inactive: 0
4,ADAM17 (UniProt P78536),inactive: 0
5,AMFR (UniProt Q9UKV5),inactive: 0
6,ANXA5 (UniProt P08758),inactive: 0
7,ANPEP (UniProt P15144),inactive: 0
8,ANXA3 (UniProt P12429),inactive: 0
9,ALOX5AP (UniProt P20292),active: 1
10,AP1S3 (UniProt Q96PC3),inactive: 0
11,ARHGAP15 (UniProt Q53QZ3),inactive: 0
12,ADAM22 (UniProt Q9P0K1),inactive: 0
13,ARHGAP5 (UniProt Q13017),inactive: 0
14,ARHGAP1 (UniProt Q07960),inactive: 0
15,AP2A2 (UniProt O94973),inactive: 0
16,AP1GBP1 (UniProt Q9UMZ2),inactive: 0
17,ALS2CR4 (UniProt Q96Q45),inactive: 0
18,ACTN1 (UniProt P12814),inactive: 0
19,ANKS1A (UniProt Q92625),inactive: 0
20,AIFM1 (UniProt O95831),inactive: 0
21,AP1G1 (UniProt O43747),inactive: 0
22,ACOT8 (UniProt O14734),inactive: 0
23,ACTR3 (UniProt P61158),inactive: 0
24,AHCTF1 (UniProt Q8WYP5),inactive: 0

row,Target,dose-dependent thermal stabilisation call
1,ALS2 (UniProt Q96Q42),inactive: 0
2,ANP32A (UniProt P39687),inactive: 0
3,ARHGAP25 (UniProt P42331),inactive: 0
4,AKT1 (UniProt P31749),inactive: 0
5,AGRN (UniProt O00468),inactive: 0
6,AKAP8L (UniProt Q9ULX6),inactive: 0
7,ALDOC (UniProt P09972),inactive: 0
8,APEH (UniProt P13798),inactive: 0
9,ANAPC2 (UniProt Q9UJX6),inactive: 0
10,ALG8 (UniProt Q9BVK2),inactive: 0
11,APC (UniProt P25054),inactive: 0
12,AGTPBP1 (UniProt Q9UPW5),inactive: 0
13,AP3B1 (UniProt O00203),inactive: 0
14,AK3L1,inactive: 0
15,ANKRD52 (UniProt Q8NB46),inactive: 0
16,ADCY3 (UniProt O60266),inactive: 0
17,ARFGAP1 (UniProt Q8N6T3),inactive: 0
18,AGAP3 (UniProt Q96P47),inactive: 0
19,ADPRHL2 (UniProt Q9NX46),inactive: 0
20,ACP1 (UniProt P24666),inactive: 0
21,AMDHD2 (UniProt Q9Y303),inactive: 0
22,ARHGAP10 (UniProt A1A4S6),inactive: 0
23,ACIN1 (UniProt Q9UKV3),inactive: 0
24,ACAT2 (UniProt Q9BWD1),inactive: 0

# Reference: the supplement of paper PMC7666118
